Reference: article PMC7819943, “Rice protein-binding microarrays: a tool to detect cis-acting elements near promoter regions in rice”
This is one part of the list.

target: T1, OsSMF1 (Oryza sativa, UniProt Q6ZLB0 1-436); assay: protein-binding microarray (RPBM); PBS, 2% BSA, 51.3 ng/ul salmon testes DNA, 50 uM zinc acetate, 200 nM TF, 25 C, 1 h; high values mean tight binding; details: protein: recombinant; tags: N-terminal polyhistidine and DsRed monomer fusion (pET32a); chain copies: 2; label: CyDye5-dUTP incorporated in the synthesized complementary strand; 3' TTTTT single-stranded linker to array surface; dsDNA, one strand shown
T1 sequence: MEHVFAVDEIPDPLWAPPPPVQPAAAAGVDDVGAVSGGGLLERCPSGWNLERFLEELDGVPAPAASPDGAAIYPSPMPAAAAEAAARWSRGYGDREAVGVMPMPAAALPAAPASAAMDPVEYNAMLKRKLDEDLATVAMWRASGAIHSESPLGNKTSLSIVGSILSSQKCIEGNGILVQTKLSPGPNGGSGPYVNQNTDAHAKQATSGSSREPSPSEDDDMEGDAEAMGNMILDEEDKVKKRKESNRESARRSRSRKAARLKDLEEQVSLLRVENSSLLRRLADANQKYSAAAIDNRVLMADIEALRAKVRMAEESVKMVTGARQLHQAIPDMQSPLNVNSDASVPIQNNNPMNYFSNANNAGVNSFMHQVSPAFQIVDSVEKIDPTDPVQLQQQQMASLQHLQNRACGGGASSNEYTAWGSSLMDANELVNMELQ
In short: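 Transcription factors, each fused N-terminally to a polyhistidine tag and DsRed, were expressed in E. coli BL21-CodonPlus and purified on Ni–NTA. A custom Agilent array was made double-stranded by primer extension with Cy5-dUTP and blocked with 2% BSA. It was incubated with 200 nM protein in PBS, 2% BSA, salmon testes DNA and 50 µM zinc acetate at 25 °C for 1 h, then washed. The binding signal is per-feature fluorescence intensity (arbitrary units) read on an Axon 4000B scanner.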

Sequence | binding signal
AGGTTGCGCGGAGACGACGGATCCATCCACCGCCACCACGCGGAGTCACCTAGTGCAG | 3460 fluorescence intensity (a.u.)
AATTAATTAACGTGTGTGCTTGCACAGCAGCCGACGTGTTCGGAGTCACCTAGTGCAG | 4800 fluorescence intensity (a.u.)
GAAAGTTGCTGCGAACATACGTGATGACGCGACTAAAGCTCGGAGTCACCTAGTGCAG | 5210 fluorescence intensity (a.u.)
CACACGGCTCAAACGCGCATACACGTAAACACACAAGCTTCGGAGTCACCTAGTGCAG | 3250 fluorescence intensity (a.u.)
CTAATTATTAGCACTCCGGATCCAAACATGACTGTGTCAACGGAGTCACCTAGTGCAG | 3740 fluorescence intensity (a.u.)
AGGTGGAGGGATGCGAAGGGGCGCCGTGACGCTGCAGCGGCGGAGTCACCTAGTGCAG | 3240 fluorescence intensity (a.u.)
TACTCCTCGTCATTTTGGTTTTGGTTTTGGTTTGGGTGGTCGGAGTCACCTAGTGCAG | 3690 fluorescence intensity (a.u.)
CACGCTGACTCAACCAGATTGATAATAGTCAACTCGTCACCGGAGTCACCTAGTGCAG | 5040 fluorescence intensity (a.u.)
GAGACAACAGCACAGGACAGCGCAGGGTGGACTCGAGGTGCGGAGTCACCTAGTGCAG | 3170 fluorescence intensity (a.u.)
GACCATCACGCCGACGTTGTTGACGATGACGCAGAGCTAGCGGAGTCACCTAGTGCAG | 4290 fluorescence intensity (a.u.)
TTTTAGAATTCCTATTATACGTCACTACTACACTTCATTACGGAGTCACCTAGTGCAG | 4900 fluorescence intensity (a.u.)
ATACACTTCACTCACACACCGCCCCGTCATTGCCCCGGCGCGGAGTCACCTAGTGCAG | 6620 fluorescence intensity (a.u.)
GATCCATGTATGAGTTGGATTTTAAGTTCGTTTGCTTTTCCGGAGTCACCTAGTGCAG | 4010 fluorescence intensity (a.u.)
ACGCCGTGGGCGCCGTCCTTGGCCGCCGCGGCGAAGTCCCCGGAGTCACCTAGTGCAG | 27800 fluorescence intensity (a.u.)
GGTTGAATTCCCGCACGTTTTCCGCCTGGTCGCCACGCGGCGGAGTCACCTAGTGCAG | 4360 fluorescence intensity (a.u.)
ACTGAATTGAGCTGCCAAGCAAGCGTAATTTCGCCCTGATCGGAGTCACCTAGTGCAG | 32000 fluorescence intensity (a.u.)
TACTCGGCGTCCGCCACCGTGGCGGTCATGCCCAAGAACACGGAGTCACCTAGTGCAG | 7920 fluorescence intensity (a.u.)
GGTCCTCATGGGTCCACGTAGCCAGTCCCATTTGTAAGTACGGAGTCACCTAGTGCAG | 3920 fluorescence intensity (a.u.)
CTAGTTCGCTACAGCGAATCGGTGAATAGTAATTCTGAACCGGAGTCACCTAGTGCAG | 33700 fluorescence intensity (a.u.)
TGCTGTGGACGGATGTGGCGAAGGCGAAGGCCTAGGGGTGCGGAGTCACCTAGTGCAG | 4160 fluorescence intensity (a.u.)
CACTAGGGTGATGAAGGGTCACTGGGGTCATAAACTCACGCGGAGTCACCTAGTGCAG | 23700 fluorescence intensity (a.u.)
CTCCTTGCTTGTCATCGCCATTGCCATCGTCATCACAGCACGGAGTCACCTAGTGCAG | 4820 fluorescence intensity (a.u.)
GCCTCTCGCTGGAGGTGCTCGACGTGTCGAGCAACCTCTTCGGAGTCACCTAGTGCAG | 4520 fluorescence intensity (a.u.)
AGATGATCTAGGCGTGCGTGCATGCATGCGTGGCCCGCCACGGAGTCACCTAGTGCAG | 4340 fluorescence intensity (a.u.)
AACGTGAACTAAACACATGTCGAAATGCAATCAAAATACCCGGAGTCACCTAGTGCAG | 42000 fluorescence intensity (a.u.)
AGATCTTCCTCACCGCTAGCCACGCGCGGCATCCACTCCGCGGAGTCACCTAGTGCAG | 3660 fluorescence intensity (a.u.)
AGTAAGCAGCCAGCGCGCGCGCAGCCGCCCACGCACGCAGCGGAGTCACCTAGTGCAG | 4460 fluorescence intensity (a.u.)

3 entries picked at random from those above, as already listed:
Sequence | binding signal
AACGTGAACTAAACACATGTCGAAATGCAATCAAAATACCCGGAGTCACCTAGTGCAG | 42000 fluorescence intensity (a.u.)
CACTAGGGTGATGAAGGGTCACTGGGGTCATAAACTCACGCGGAGTCACCTAGTGCAG | 23700 fluorescence intensity (a.u.)
ATACACTTCACTCACACACCGCCCCGTCATTGCCCCGGCGCGGAGTCACCTAGTGCAG | 6620 fluorescence intensity (a.u.)

Later entries.

Sequence | binding signal
AAACAGAACAGAACACGGGATGGTGTCTTACCTGTATACCCGGAGTCACCTAGTGCAG | 3920 fluorescence intensity (a.u.)
AACAAAATAAAACTAAGCCGAGCCACCAGACGTATGGCCTCGGAGTCACCTAGTGCAG | 36800 fluorescence intensity (a.u.)
ATTACAAATATACTTATGTATAGTTGCCAGCTCAACTGCTCGGAGTCACCTAGTGCAG | 5610 fluorescence intensity (a.u.)
CTCCTGCTTGTCTCGTTGCGTGGCCGTGGCCTTGTGCGGTCGGAGTCACCTAGTGCAG | 4860 fluorescence intensity (a.u.)
TGCACAATCCGACTGTAAATTACGAGATGAATCTTTTGAGCGGAGTCACCTAGTGCAG | 25900 fluorescence intensity (a.u.)
TCCACCCCTCCTGGAGCTGGAGCTGTGCCAAATAGGCCCTCGGAGTCACCTAGTGCAG | 3660 fluorescence intensity (a.u.)
ATCAACCTGGAAAGATCCCACGCCTAGTCACCATCTATATCGGAGTCACCTAGTGCAG | 6610 fluorescence intensity (a.u.)
CCTCACAGTCCTCCACTCACGCACGTCGTCGCCGTCGCCGCGGAGTCACCTAGTGCAG | 3830 fluorescence intensity (a.u.)
AAATTTCAGTACCATCCACGCCAAAATTAAGGGTGTGTTTCGGAGTCACCTAGTGCAG | 3970 fluorescence intensity (a.u.)
TTTCTATGGAAGTTTAACTTTGTGCTTAGGTCAGCTTTGTCGGAGTCACCTAGTGCAG | 3610 fluorescence intensity (a.u.)
AAGTGTGTTGGTTGGTGGCATTGTGCTGCGCATGGAGGTTCGGAGTCACCTAGTGCAG | 3230 fluorescence intensity (a.u.)
GTGTTTTGTTAATAGTTGTGTGGTGTATATGGTTGCGTGTCGGAGTCACCTAGTGCAG | 4880 fluorescence intensity (a.u.)
GCGGGAACGAGTCCGAATCCGTGTCCCGTGTTCGCGCGCTCGGAGTCACCTAGTGCAG | 3260 fluorescence intensity (a.u.)
GTACGACGGAACGTGGCACGGTCAGTGTGTGGTTTGTTGCCGGAGTCACCTAGTGCAG | 3390 fluorescence intensity (a.u.)
ACTTTGTTATGACGTGACCAATATATTTAAGTAATTCTGTCGGAGTCACCTAGTGCAG | 5630 fluorescence intensity (a.u.)
TGCCAAATGTTGAAACACTTACAGTAGCATCTAATGAAGTCGGAGTCACCTAGTGCAG | 16000 fluorescence intensity (a.u.)
CGGCGGCGCACAGCCGGCCTTCCACCGCAGCGGAGAGGCCCGGAGTCACCTAGTGCAG | 35600 fluorescence intensity (a.u.)
ACCTCCCACGCGCTGCCACGCCGGCGACACGACCACTGCCCGGAGTCACCTAGTGCAG | 8960 fluorescence intensity (a.u.)
TGGGATGAGAGTATGAGACCACGTGTGGCGCCTCCGAGCACGGAGTCACCTAGTGCAG | 5090 fluorescence intensity (a.u.)
TTGAGCCCATTTTACTGACCTGTCTCCCTGGGCTTTGTTGCGGAGTCACCTAGTGCAG | 3430 fluorescence intensity (a.u.)
TGTATTTCGCCGGTTGCAATTTCGTCATCACTGCGGTTAGCGGAGTCACCTAGTGCAG | 3500 fluorescence intensity (a.u.)
GAATTTGGTCTGTAGTAACAAGTTTTGCCACGCATATTATCGGAGTCACCTAGTGCAG | 3670 fluorescence intensity (a.u.)
ATTCCGCCGTCCGCCATGGATGTCGTCACCGTGGTCTCTACGGAGTCACCTAGTGCAG | 5410 fluorescence intensity (a.u.)
ATAGATTAATGAATTATATGCCTCGTCATTTGGTGAAATACGGAGTCACCTAGTGCAG | 4050 fluorescence intensity (a.u.)
GCCACGCTAGTCCGCTTGGCGTGACAAAGCAACAATGGCACGGAGTCACCTAGTGCAG | 3350 fluorescence intensity (a.u.)
CGAATTGAAGAATATGCATCCATGTGACACGCTTCTTGAACGGAGTCACCTAGTGCAG | 3940 fluorescence intensity (a.u.)
ATTTCGTCTAGATAAAATGAGTTTTACAATTTATCCCTTACGGAGTCACCTAGTGCAG | 7930 fluorescence intensity (a.u.)
